Results are given in words; binding and its absence hold for the method and conditions named. In cells and extracts the contact can be indirect. Some binding calls cover weakened binding; strength is not graded here.
Molecular target: T1, chemokine receptor CCR10 (mouse (endogenous in db/db mouse skin wounds)) (UniProt Q9JL21)
T1 sequence: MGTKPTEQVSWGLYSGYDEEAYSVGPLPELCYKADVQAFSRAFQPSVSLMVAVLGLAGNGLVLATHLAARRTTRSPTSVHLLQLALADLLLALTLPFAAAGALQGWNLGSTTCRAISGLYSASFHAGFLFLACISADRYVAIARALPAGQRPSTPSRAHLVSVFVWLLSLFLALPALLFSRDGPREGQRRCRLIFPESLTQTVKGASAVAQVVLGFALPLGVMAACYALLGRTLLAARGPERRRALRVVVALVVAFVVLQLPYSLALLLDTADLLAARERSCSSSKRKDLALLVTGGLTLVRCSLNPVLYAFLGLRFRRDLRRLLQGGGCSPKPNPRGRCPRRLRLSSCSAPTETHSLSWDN
Experiment: co-IP; anti-CCR10 Ab added to lysates (2% ODG, Tris buffer) of day 10 dorsal wounds of db/db mice treated with 1 ug anti-CCL28 Ab or control IgG; Western blotting with anti-eNOS Ab and anti-CCR10 Ab

B1: endothelial nitric oxide synthase (eNOS) (enzyme, UniProt P70313 1-1202)
chain: MGNLKSVGQEPGPPCGLGLGLGLGLCGKQGPASPAPEPSQAPAPPSPTRPAPDHSPPLTRPPDGPRFPRVKNWEVGSITYDTLSAQAQQDGPCTSRRCLGSLVFPRKLQSRPTQGPSPTEQLLGQARDFINQYYNSIKRSGSQAHEQRLQEVEAEVAATGTYQLRESELVFGAKQAWRNAPRCVGRIQWGKLQVFDARDCRTAQEMFTYICNHIKYATNRGNLRSAITVFPQRCPGRGDFRIWNSQLIRYAGYRQQDGSVRGDPANVEITELCIQHGWTPGNGRFDVLPLLLQAPDEPPELFTLPPEMVLEVPLEHPTLEWFAALGLRWYALPAVSNMLLEIGGLEFPAAPFSGWYMSSEIGMRDLCDPHRYNILEDVAVCMDLDTRTTSSLWKDKAAVEINVAVLHSYQLAKVTIVDHHAATASFMKHLENEQKARGGCPADWAWIVPPISGSLTPVFHQEMVNYFLSPAFRYQPDPWKGSAAKGAGITRKKTFKEVANAVKISASLMGTVMAKRVKATILYGSETGRAQSYAQQLGRLFRKAFDPRVLCMDEYDVVSLEHEALVLVVTSTFGNGDPPENGESFAAALMEMSGPYNSSPRPEQHKSYKIRFNSVSCSDPLVSSWRRKRKESSNTDSAGALGTLRFCVFGLGSRAYPHFCAFARAVDTRLEELGGERLLQLGQGDELCGQEEAFRGWAQAAFQAACETFCVGEDAKAAARDIFSPKRSWKRQRYRLSTQAESLQLLPGLTHVHRRKMFQATILSVENLQSSKSTRATILVRLDTGGQEGLQYQPGDHIGVCPPNRPGLVEALLSRVEDPPPSTEPVAVEQLEKGSPGGPPPGWVRDPRLPPCTLRQALTYFLDITSPPSPRLLRLLSTLAEESSEQQELEALSQDPRRYEEWKWFSCPTLLEVLEQFPSVALPAPLILTQLPLLQPRYYSVSSAPSAHPGEIHLTIAVLAYRTQDGLGPLHYGVCSTWMSQLKAGDPVPCFIRGAPSFRLPPDPNLPCILVGPGTGIAPFRGFWQDRLHDIEIKGLQPAPMTLVFGCRCSQLDHLYRDEVLDAQQRGVFGQVLTAFSRDPGSPKTYVQDLLRTELAAEVHRVLCLEQGHMFVCGDVTMATSVLQTVQRILATEGGMELDEAGDVIGVLRDQQRYHEDIFGLTLRTQEVTSRIRTQSFSLQERQLRGAVPWSFDPPGPEIPGS
B1 was tested, and the binding was “binds”.

From PMC9880283
